Test results taken from patent US11759496B2, “Compounds and pharmaceutical use thereof in the treatment of cancer” (priority 2016, dated 2023).
Part of at least one peptide drawing is inferred or uncertain, most often the ends. Non-standard residues stand in square brackets, D forms with d. Residues, ends and D or L forms follow the SMILES beside them. NMeR = CN[C@@H](CCCNC(=N)N)C(=O)O; Nle = CCCC[C@H](N)C(=O)O

Tested on: OSU cells
Test: Deaths on OSU cells treated with PKT16 or PKT16-FF (FIG. 4)
Assay type: cell-based
Conditions: for deaths on OSU cells: 6 hours, control 9.5%
Procedure: FIG. 4: compares deaths on OSU cells treated with PKT16 or PKT16-FF. For PKT16, it can be seen that the reported deaths are of 11.1, 17.9 and 52.7% for concentrations of 25 μM, 50 μM and 100 μM respectively. For PKT16-FF, it can be seen that the reported deaths are of 16.6, 38.3 and 82.4% for concentrations of 25 μM, 50 μM and 100 μM respectively. The control test provided 9.5% death of the cells.
It was synthesized using common solide phase peptide synthesis technics as mentioned above.

Compound: CCCC[C@H](NC(=O)[C@@H](NC(=O)[C@@H](NC(=O)[C@H](Cc1ccccc1)NC(=O)[C@H](Cc1ccccc1)NC(=O)[C@H](CCCNC(=N)N)N(C)C(=O)[C@H](N)CCCCN)C(C)C)C(C)C)C(=O)N[C@@H](Cc1c[nH]c2ccccc12)C(=O)N[C@@H](CCCCN)C(=O)N[C@H](CCCCN)C(=O)O [PKT16-FF, H-(D)K ψ(CONMe)R F F V V X W K (D)K-OH] (H-[dK][NMeR]FFVV[Nle]WK[dK]-OH)
- deaths on OSU cells (25 μM): 16.6%
- deaths on OSU cells (50 μM): 38.3%
- deaths on OSU cells (100 μM): 82.4%
- activity compared with PKT16 (X2 tyrosine replacement) (Example 5, in words): more active than PKT16
- concentration from which the peptide is active (over 6 hours, FIG. 4): ≥ 25 µM
